Consider two molecules from doi:10.1101/2020.05.22.111740.

Experiment in all cases: co-IP
The target of test [1] is HPV16 E7 R77S (Flag and HA-tagged) (HPV16) (UniProt P03129).
For test [2], the target named is HPV16 E7 WT (Flag and HA-tagged) (HPV16) (UniProt P03129).
For test [3], the target named is HPV16 E7 Δ21-24 (Flag and HA-tagged) (HPV16) (UniProt P03129).
Test [4] concerns the target HPV18 E7 WT (Flag and HA-tagged) (HPV18) (UniProt P06788).
Test [5] deals with HPV18 E7 R84S (Flag and HA-tagged) (HPV18) (UniProt P06788).

No constants are given. Whether binding was seen depends on the method and setting. In cells and extracts the contact can be indirect. Some entries that bind do so weakly or less than the wild type.

B1: non-receptor protein tyrosine phosphatase type 14 (PTPN14) (protein, UniProt Q15678 1-1187)
chain: MPFGLKLRRTRRYNVLSKNCFVTRIRLLDSNVIECTLSVESTGQECLEAVAQRLELRETHYFGLWFLSKSQQARWVELEKPLKKHLDKFANEPLLFFGVMFYVPNVSWLQQEATRYQYYLQVKKDVLEGRLRCTLDQVIRLAGLAVQADFGDYNQFDSQDFLREYVLFPMDLALEEAVLEELTQKVAQEHKAHSGILPAEAELMYINEVERLDGFGQEIFPVKDNHGNCVHLGIFFMGIFVRNRIGRQAVIYRWNDMGNITHNKSTILVELINKEETALFHTDDIENAKYISRLFATRHKFYKQNKICTEQSNSPPPIRRQPTWSRSSLPRQQPYILPPVHVQCGEHYSETHTSQDSIFHGNEEALYCNSHNSLDLNYLNGTVTNGSVCSVHSVNSLNCSQSFIQASPVSSNLSIPGSDIMRADYIPSHRHSAIIVPSYRPTPDYETVMRQMKRGILHTDSQSQSLRNLNIINTHAYNQPEDLVYSQPEMRERHPYTVPYGPQGVYSNKLVSPSDQRNPKNNVVPSKPGASAISHTVSTPELANMQLQGSHNYSTAHMLKNYLFRPPPPYPRPRPATSTPDLASHRHKYVSGSSPDLVTRKVQLSVKTFQEDSSPVVHQSLQEVSEPLTATKHHGTVNKRHSLEVMNSMVRGMEAMTLKSLHLPMARRNTLREQGPPEEGSGSHEVPQLPQYHHKKTFSDATMLIHSSESEEEEEEAPESVPQIPMLREKMEYSAQLQAALARIPNKPPPEYPGPRKSVSNGALRQDQASLPPAMARARVLRHGPAKAISMSRTDPPAVNGASLGPSISEPDLTSVKERVKKEPVKERPVSEMFSLEDSIIEREMMIRNLEKQKMAGLEAQKRPLMLAALNGLSVARVSGREENRVDATRVPMDERFRTLKKKLEEGMVFTEYEQIPKKKANGIFSTAALPENAERSRIREVVPYEENRVELIPTKENNTGYINASHIKVVVGGAEWHYIATQGPLPHTCHDFWQMVWEQGVNVIAMVTAEEEGGRTKSHRYWPKLGSKHSSATYGKFKVTTKFRTDSVCYATTGLKVKHLLSGQERTVWHLQYTDWPDHGCPEDVQGFLSYLEEIQSVRRHTNSMLEGTKNRHPPIVVHCSAGVGRTGVLILSELMIYCLEHNEKVEVPMMLRLLREQRMFMIQTIAQYKFVYQVLIQFLQNSRLI
With B1, the binding result in test [1] is “no binding”; in test [2], “binds”; in test [3], “binds”; in test [4] it was “binds”; in test [5], “no binding”.

B2: retinoblastoma tumor suppressor (RB1) (protein, UniProt P06400 1-928)
chain: MPPKTPRKTAATAAAAAAEPPAPPPPPPPEEDPEQDSGPEDLPLVRLEFEETEEPDFTALCQKLKIPDHVRERAWLTWEKVSSVDGVLGGYIQKKKELWGICIFIAAVDLDEMSFTFTELQKNIEISVHKFFNLLKEIDTSTKVDNAMSRLLKKYDVLFALFSKLERTCELIYLTQPSSSISTEINSALVLKVSWITFLLAKGEVLQMEDDLVISFQLMLCVLDYFIKLSPPMLLKEPYKTAVIPINGSPRTPRRGQNRSARIAKQLENDTRIIEVLCKEHECNIDEVKNVYFKNFIPFMNSLGLVTSNGLPEVENLSKRYEEIYLKNKDLDARLFLDHDKTLQTDSIDSFETQRTPRKSNLDEEVNVIPPHTPVRTVMNTIQQLMMILNSASDQPSENLISYFNNCTVNPKESILKRVKDIGYIFKEKFAKAVGQGCVEIGSQRYKLGVRLYYRVMESMLKSEEERLSIQNFSKLLNDNIFHMSLLACALEVVMATYSRSTSQNLDSGTDLSFPWILNVLNLKAFDFYKVIESFIKAEGNLTREMIKHLERCEHRIMESLAWLSDSPLFDLIKQSKDREGPTDHLESACPLNLPLQNNHTAADMYLSPVRSPKKKGSTTRVNSTANAETQATSAFQTQKPLKSTSLSLFYKKVYRLAYLRLNTLCERLLSEHPELEHIIWTLFQHTLQNEYELMRDRHLDQIMMCSMYGICKVKNIDLKFKIIVTAYKDLPHAVQETFKRVLIKEEEYDSIIVFYNSVFMQRLKTNILQYASTRPPTLSPIPHIPRSPYKFPSSPLRIPGGNIYISPLKSPYKISEGLPTPTKMTPRSRILVSIGESFGTSEKFQKINQMVCNSDRVLKRSAEGSNPPKPLKKLRFDIEGSDEADGSKHLPGESKFQQKLAEMTSTRTRMQKQKMNDSMDTSNKEEK
Consider B2, for which the binding entry in test [1], in test [2], in test [4] and in test [5] was “binds” in each case.
